Measurements as given in patent publication US9403797B2, “5-(pyridin-2-yl-amino)-pyrazine-2-carbonitrile compounds and their therapeutic use” (Cancer Research Technology Limited, priority 2011, dated 2016).

Assay: Comparative oral bioavailability by limited sampling in vivo pharmacokinetics
Conditions: female, BALB/c, mouse, plasma, 10 mg/kg

- concentration at 1 h: ≥ 10 nM
Structure (SMILES): CNc1cc(Nc2cnc(C#N)c(O[C@@H]3CCNC3)n2)ncc1C(=O)OC [PAPC-B-10, (R)-Methyl 6-((5-cyano-6-(pyrrolidin-3-yloxy)pyrazin-2-yl)amino)-4-(methylamino)nicotinate]
